Measured values published in PMC8177813 (Journal of pharmaceutical sciences, 2020).

How the values were obtained:
human OAT3 = biological target: T1, human OAT3 (Homo sapiens, UniProt Q8TCC7); test: cell-based
T1 sequence (Q8TCC7 1-542): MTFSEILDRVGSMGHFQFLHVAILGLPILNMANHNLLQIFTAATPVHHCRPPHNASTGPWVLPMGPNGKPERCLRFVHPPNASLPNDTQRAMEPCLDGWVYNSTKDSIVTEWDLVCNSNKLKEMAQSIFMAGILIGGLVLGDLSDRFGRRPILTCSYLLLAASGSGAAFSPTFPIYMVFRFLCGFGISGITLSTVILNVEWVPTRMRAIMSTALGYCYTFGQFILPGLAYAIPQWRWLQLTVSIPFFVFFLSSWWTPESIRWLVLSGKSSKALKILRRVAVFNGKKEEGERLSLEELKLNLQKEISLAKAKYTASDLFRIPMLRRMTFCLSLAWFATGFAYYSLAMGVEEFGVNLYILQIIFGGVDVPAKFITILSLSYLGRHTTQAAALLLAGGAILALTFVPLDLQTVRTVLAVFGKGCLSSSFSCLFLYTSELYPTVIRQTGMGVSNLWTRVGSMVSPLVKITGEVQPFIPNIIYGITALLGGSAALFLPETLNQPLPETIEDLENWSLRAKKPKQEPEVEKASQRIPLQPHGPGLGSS

human OAT1 = biological target: T2, human OAT1 (Homo sapiens, UniProt Q4U2R8); test: Inhibition of OAT1-mediated 6-carboxyfluorescein
T2 sequence (Q4U2R8 1-563): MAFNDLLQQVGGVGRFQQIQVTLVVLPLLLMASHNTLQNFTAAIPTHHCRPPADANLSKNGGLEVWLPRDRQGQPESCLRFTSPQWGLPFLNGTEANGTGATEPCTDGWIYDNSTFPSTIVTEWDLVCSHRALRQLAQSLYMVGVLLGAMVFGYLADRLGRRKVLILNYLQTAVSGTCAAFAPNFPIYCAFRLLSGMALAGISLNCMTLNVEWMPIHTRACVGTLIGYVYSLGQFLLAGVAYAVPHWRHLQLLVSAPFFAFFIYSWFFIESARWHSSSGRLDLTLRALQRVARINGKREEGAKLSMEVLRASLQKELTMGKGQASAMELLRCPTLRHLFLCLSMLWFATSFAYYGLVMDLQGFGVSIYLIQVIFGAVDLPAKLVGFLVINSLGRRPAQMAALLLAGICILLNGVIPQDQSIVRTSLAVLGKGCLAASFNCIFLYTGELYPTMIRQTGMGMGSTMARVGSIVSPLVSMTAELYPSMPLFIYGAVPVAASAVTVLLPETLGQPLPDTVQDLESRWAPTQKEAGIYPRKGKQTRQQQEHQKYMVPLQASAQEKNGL

**Q.** How did the Ki (human OAT3) turn out when `COc1ccc2cc([C@H](C)C(=O)O)ccc2c1` [Naproxen, reference compound] was run?
**A.** 4.75 µM

**Q.** What about the Ki (human OAT1) of the same molecule?
**A.** 3.23 µM
